Experimental data as given in patent publication US7199140B2, “Vinyl phenyl derivatives as GLK activators” (AstraZeneca AB, priority 2001, dated 2007).
Some entries share one result that the patent states for a list of compounds.

Biological target: T1, GLK/GLKRP complex (Homo sapiens, UniProt P35557)
T1 construct: 6-His (N); FLAG (C); made in house; host or cells: E. coli BL21
T1 sequence (P35557 1-466 isoform P35557-2): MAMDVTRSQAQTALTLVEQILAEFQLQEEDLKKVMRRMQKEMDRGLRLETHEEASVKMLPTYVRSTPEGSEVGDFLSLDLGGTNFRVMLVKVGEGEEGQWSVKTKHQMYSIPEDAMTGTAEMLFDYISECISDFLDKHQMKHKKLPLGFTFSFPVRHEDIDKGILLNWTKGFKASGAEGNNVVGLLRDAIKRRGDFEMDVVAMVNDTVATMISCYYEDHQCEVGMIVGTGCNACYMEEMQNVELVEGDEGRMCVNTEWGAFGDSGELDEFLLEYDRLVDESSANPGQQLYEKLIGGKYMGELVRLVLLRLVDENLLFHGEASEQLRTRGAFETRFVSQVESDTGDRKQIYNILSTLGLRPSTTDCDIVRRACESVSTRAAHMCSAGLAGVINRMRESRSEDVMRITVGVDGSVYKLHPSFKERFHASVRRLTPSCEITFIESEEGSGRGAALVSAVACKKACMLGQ
Experiment: GLK/GLKRP scintillation proximity assay
Type: binding
Conditions: at 10 μm

SMILES | activity
O=C(O)COc1ccc(/C=C/c2cc(OCc3ccccc3)cc(OCc3ccccc3)c2)nc1 [L, 6-(E-2-[-2-(3,5-dibenzyloxy)-phenyl]-vinyl)-pyridine-3-oxyacetic acid] | at least 40%
CONC(=O)c1ccc(/C=C/c2cc(SC)ccc2OCc2ccccc2)nc1 [K, 6-(E-2-[-2-(2-benzyloxy)-5-methylsulfanyl-phenyl]-vinyl)-nicotinic acid, N-methoxyamide] | at least 40%
O=C(O)c1csc(/C=C/c2cc(OCc3ccccc3Cl)cc(OCc3ccccc3Cl)c2)n1 [M, E 2-{-2-[3,5-di-(2-chlorobenzyloxy)]-phenyl}-vinyl-thiazole-4-carboxylic Acid] | at least 40%
